From the supplement of paper PMC10849652
The other results are listed elsewhere or left out.

The chains behind the UniProt entries cited, without tags or fusion partners. Where a name states a change or a piece, a line headed by the entry shows the natural chain unless it says otherwise.
UniProt Q9NX14, whole entry, looked up: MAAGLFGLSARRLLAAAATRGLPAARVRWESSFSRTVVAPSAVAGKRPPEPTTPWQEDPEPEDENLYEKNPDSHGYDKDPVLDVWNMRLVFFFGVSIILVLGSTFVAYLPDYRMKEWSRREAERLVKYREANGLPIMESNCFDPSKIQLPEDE
UniProt Q9Y375: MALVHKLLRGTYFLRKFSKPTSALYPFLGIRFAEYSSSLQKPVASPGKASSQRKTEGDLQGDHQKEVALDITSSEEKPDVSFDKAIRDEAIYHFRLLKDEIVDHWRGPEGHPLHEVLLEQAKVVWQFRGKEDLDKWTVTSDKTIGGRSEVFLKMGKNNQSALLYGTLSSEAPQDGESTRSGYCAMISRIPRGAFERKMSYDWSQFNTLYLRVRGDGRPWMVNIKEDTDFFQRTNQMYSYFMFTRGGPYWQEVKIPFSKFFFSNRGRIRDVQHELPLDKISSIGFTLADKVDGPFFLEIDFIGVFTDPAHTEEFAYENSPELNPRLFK
UniProt P54802: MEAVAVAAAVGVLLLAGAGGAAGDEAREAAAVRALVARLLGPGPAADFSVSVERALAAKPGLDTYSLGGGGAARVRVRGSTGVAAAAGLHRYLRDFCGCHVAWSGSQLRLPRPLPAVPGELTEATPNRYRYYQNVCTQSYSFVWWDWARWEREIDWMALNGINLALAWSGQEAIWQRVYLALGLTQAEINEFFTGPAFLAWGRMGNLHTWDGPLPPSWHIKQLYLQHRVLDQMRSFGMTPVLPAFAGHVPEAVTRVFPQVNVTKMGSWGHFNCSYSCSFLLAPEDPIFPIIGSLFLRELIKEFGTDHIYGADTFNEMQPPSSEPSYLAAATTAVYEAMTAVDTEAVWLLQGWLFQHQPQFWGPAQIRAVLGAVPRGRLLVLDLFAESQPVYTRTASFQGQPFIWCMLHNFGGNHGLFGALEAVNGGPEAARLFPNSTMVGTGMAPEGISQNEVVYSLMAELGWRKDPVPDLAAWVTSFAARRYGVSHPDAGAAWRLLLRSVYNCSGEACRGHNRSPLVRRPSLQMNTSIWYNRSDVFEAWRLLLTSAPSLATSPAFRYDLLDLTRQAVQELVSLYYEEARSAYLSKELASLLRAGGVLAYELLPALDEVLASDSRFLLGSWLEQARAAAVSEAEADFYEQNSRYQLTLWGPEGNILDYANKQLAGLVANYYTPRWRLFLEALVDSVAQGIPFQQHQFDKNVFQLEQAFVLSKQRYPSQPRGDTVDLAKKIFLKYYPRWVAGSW
UniProt Q8TBE9: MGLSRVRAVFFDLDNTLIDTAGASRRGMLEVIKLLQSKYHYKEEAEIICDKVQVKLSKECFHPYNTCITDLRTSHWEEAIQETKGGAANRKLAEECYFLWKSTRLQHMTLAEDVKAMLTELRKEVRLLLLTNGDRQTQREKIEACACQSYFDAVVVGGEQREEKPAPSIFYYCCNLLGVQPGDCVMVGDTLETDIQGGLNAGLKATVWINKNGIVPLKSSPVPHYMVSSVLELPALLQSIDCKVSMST
UniProt P52298: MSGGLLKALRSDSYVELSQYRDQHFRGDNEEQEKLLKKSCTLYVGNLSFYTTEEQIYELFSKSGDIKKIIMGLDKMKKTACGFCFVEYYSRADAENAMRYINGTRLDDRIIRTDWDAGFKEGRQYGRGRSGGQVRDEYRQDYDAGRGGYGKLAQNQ
UniProt Q16718, whole entry, looked up: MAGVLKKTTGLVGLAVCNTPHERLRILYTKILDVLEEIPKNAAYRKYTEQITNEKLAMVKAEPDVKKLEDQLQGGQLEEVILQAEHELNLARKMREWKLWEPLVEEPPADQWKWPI
UniProt Q86XI2: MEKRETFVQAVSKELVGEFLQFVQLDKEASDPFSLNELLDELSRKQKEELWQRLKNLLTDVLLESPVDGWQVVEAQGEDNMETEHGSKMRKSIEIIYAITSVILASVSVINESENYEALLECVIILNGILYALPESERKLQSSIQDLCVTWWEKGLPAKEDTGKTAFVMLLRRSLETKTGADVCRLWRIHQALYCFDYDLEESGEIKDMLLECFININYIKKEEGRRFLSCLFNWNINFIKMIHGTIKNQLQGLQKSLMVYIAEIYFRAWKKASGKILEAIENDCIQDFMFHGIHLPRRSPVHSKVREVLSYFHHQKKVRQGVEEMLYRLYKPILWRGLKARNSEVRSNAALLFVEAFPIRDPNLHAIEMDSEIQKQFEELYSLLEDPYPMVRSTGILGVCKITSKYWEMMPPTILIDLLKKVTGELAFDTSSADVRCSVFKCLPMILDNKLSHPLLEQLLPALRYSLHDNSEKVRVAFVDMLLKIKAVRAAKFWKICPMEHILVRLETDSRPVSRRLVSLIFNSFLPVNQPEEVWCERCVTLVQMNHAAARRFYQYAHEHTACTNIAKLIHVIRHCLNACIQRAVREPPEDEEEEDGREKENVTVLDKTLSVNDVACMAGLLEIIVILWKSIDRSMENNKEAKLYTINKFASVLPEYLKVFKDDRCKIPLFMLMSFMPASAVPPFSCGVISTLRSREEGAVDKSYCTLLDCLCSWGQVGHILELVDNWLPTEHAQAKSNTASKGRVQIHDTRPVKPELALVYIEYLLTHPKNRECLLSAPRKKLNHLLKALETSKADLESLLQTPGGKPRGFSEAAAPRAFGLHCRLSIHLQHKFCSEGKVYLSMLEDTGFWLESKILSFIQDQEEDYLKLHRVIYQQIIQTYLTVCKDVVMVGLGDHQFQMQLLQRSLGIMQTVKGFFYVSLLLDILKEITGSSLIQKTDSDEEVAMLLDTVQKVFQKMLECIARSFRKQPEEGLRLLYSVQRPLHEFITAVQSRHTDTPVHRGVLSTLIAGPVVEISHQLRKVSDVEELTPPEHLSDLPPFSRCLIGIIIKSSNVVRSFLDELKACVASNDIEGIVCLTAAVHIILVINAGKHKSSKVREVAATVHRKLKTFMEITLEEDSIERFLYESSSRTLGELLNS
UniProt O95299, whole entry, looked up: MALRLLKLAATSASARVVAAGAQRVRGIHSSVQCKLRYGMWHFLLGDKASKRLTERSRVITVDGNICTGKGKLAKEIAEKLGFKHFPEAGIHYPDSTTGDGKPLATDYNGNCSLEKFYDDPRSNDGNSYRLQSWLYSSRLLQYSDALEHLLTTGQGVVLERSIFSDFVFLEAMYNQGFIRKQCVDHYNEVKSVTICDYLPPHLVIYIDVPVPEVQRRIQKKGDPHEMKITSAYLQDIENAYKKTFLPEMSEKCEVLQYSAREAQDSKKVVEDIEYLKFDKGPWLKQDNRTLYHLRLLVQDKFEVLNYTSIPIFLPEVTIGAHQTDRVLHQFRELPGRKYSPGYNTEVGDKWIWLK
UniProt Q6P582, whole entry, looked up: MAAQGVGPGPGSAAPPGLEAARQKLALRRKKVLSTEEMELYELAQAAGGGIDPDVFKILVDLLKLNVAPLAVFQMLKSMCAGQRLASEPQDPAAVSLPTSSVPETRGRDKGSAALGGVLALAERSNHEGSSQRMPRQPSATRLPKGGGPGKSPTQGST
UniProt Q92542, whole entry, looked up: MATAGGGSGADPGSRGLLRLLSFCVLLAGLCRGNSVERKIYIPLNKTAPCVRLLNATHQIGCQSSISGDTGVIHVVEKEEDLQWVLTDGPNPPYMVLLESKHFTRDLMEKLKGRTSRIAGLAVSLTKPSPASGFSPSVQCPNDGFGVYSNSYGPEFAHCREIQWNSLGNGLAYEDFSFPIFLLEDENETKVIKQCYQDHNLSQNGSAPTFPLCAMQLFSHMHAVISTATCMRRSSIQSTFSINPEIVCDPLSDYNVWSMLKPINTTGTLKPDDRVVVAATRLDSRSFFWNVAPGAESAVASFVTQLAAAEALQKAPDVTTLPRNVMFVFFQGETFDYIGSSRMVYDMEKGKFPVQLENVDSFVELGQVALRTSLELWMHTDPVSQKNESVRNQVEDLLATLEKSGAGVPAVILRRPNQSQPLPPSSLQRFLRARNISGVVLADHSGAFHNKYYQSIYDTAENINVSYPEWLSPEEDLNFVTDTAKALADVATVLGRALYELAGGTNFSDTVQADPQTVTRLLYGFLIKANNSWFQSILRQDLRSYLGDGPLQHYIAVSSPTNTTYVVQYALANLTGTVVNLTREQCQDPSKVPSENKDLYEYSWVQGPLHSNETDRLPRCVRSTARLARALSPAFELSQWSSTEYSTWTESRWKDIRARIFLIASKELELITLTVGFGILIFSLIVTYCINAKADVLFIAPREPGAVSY
UniProt P61599, whole entry, looked up: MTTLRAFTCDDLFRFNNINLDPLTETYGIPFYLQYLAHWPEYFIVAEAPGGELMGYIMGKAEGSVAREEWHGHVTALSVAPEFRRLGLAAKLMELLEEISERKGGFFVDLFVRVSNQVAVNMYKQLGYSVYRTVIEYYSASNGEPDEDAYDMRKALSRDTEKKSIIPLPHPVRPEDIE
UniProt Q9UBB6: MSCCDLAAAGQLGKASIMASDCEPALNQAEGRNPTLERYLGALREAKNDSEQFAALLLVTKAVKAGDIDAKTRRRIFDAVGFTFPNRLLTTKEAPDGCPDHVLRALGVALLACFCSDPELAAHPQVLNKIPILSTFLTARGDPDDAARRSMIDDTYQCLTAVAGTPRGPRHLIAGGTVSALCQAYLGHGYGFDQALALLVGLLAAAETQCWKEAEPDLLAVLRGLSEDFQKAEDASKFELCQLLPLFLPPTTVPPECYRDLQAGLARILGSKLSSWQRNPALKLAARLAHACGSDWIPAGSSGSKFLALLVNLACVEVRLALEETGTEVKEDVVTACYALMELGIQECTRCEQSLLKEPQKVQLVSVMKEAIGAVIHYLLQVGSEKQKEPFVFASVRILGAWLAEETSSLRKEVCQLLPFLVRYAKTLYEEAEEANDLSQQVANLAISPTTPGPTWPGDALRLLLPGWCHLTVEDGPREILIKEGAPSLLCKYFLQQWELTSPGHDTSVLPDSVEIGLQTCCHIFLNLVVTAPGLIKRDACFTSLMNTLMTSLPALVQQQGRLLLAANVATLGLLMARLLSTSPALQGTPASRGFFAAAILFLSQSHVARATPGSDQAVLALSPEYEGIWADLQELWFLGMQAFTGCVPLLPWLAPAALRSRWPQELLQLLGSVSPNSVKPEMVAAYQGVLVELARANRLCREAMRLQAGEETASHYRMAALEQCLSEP
UniProt Q9UHB4: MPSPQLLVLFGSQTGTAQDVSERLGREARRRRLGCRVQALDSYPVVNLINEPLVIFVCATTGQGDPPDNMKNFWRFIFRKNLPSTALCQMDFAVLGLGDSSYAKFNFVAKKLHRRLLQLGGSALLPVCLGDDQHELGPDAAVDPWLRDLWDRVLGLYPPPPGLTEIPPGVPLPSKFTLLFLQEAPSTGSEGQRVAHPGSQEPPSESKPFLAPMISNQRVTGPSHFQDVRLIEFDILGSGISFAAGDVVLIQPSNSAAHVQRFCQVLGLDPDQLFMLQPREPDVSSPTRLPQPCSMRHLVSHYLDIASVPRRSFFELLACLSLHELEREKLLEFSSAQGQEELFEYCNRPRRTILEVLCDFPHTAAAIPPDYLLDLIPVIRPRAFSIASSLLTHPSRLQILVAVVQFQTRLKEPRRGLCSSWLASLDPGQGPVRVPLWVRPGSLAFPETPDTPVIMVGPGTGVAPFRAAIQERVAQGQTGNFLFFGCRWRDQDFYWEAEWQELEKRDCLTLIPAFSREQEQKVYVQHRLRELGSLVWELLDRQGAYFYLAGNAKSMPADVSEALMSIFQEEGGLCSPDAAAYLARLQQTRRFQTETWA
UniProt Q6IA69: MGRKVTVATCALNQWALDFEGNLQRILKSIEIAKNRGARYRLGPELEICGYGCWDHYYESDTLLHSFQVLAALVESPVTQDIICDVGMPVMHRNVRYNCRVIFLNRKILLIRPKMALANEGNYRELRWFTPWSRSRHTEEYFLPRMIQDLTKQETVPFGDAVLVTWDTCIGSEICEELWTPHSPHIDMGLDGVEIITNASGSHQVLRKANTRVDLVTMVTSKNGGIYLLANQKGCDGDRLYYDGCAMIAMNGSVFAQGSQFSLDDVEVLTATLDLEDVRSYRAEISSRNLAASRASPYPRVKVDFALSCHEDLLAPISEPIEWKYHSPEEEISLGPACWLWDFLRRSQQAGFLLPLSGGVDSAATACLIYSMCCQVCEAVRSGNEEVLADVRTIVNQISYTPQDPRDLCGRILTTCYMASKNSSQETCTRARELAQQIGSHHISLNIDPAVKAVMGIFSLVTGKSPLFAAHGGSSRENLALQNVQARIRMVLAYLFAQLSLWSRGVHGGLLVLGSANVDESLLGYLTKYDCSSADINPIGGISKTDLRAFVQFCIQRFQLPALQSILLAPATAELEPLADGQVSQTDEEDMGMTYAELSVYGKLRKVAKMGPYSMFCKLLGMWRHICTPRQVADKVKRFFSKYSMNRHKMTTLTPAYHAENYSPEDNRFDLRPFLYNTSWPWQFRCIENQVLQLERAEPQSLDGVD
UniProt O95167, whole entry, looked up: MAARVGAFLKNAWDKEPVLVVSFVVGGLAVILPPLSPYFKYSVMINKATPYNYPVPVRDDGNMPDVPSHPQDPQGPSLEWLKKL
UniProt Q9Y6M9, whole entry, looked up: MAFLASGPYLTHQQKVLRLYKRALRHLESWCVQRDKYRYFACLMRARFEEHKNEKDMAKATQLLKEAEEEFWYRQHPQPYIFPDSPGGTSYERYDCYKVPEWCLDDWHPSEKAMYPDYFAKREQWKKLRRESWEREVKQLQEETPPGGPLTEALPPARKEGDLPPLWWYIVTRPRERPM

Key:
Experiment in all cases: log2 fold change, soluble protein after heating vs DMSO (PISA); higher = thermal stabilisation; K562 cells, 10 uM, 30 min; active = over 0.2 and 3.5 SD of the protein, either way, in both replicates (recomputed)
saracatinib = compound: CN1CCN(CCOc2cc(OC3CCOCC3)c3c(Nc4c(Cl)ccc5c4OCO5)ncnc3c2)CC1 [saracatinib]
Outline: (§1)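 Values are thermal stability changes relative to control samples and are taken from duplicates. They are stated as log2 fold changes. Before quantification by TMTpro 16plex LC-MS/MS with equalised channel sums, K562 cells at 2×10^6 cells/mL were treated with 10 μM compound for 30 min, heated in aliquots for 3 min across 48°C-58°C, pooled, extracted in PBS with 0.5% NP-40 at 4°C, and centrifuged at 21,000xg for 90 min to give the soluble supernatant.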

sotrastaurin = compound: CN1CCN(c2nc(C3=C(c4c[nH]c5ccccc45)C(=O)NC3=O)c3ccccc3n2)CC1 [sotrastaurin]
Outline: as §1

alvocidib = compound: CN1CC[C@H](c2c(O)cc(O)c3c(=O)cc(-c4ccccc4Cl)oc23)[C@H](O)C1 [alvocidib]
Outline: as §1

Tubastatin A = compound: CN1CCc2c(c3ccccc3n2Cc2ccc(C(=O)NO)cc2)C1 [Tubastatin A]
Outline: as §1

[1] = compound: CNC(=O)C1=CC=CC=C1NC2=NC(=NC=C2Cl)NC3=C(C=C(C=C3)N4CCOCC4)OC
Outline: as §1

defactinib = compound: CNC(=O)c1ccc(Nc2ncc(C(F)(F)F)c(NCc3nccnc3N(C)S(C)(=O)=O)n2)cc1 [defactinib]
Outline: as §1

rucaparib = compound: CNCc1ccc(-c2[nH]c3cc(F)cc4c3c2CCNC4=O)cc1 [rucaparib]
Outline: as §1

[2] = compound: CNc1nc(-c2ccc3c(N)n[nH]c3c2)cc(N2C[C@@H](C(=O)NC3CCCCC3)CC[C@H]2C)n1
Outline: as §1

encorafenib = compound: COC(=O)N[C@@H](C)CNc1nccc(-c2cn(C(C)C)nc2-c2cc(Cl)cc(NS(C)(=O)=O)c2F)n1 [encorafenib]
Outline: as §1

[3] = compound: COC(=O)[C@H](CCSC)NC(=O)C1=C(C=C(C=C1)NC[C@H](CS)N)C2=CC=CC=C2
Outline: as §1

Measured: log2 fold change

NDUFB11 isoform 2 (UniProt Q9NX14)
inactive: saracatinib -0.025 | sotrastaurin -0.007 | alvocidib 0.014 | Tubastatin A 0.013 | [1] 0.039 | defactinib -0.024 | rucaparib -0.02 | [2] 0 | encorafenib -0.029 | [3] -0.032

NDUFAF1 (UniProt Q9Y375)
inactive: saracatinib 0.086 | sotrastaurin 0.036 | alvocidib -0.032 | Tubastatin A -0.008 | [1] -0.015 | defactinib -0.02 | rucaparib -0.028 | [2] -0.014 | encorafenib 0.025 | [3] 0.046

NDUFS3 (UniProt O75489)
inactive: saracatinib 0.078 | sotrastaurin 0.011 | alvocidib -0.032 | Tubastatin A -0.053 | [1] -0.026 | defactinib -0.094 | rucaparib -0.043 | [2] -0.002 | encorafenib 0.017 | [3] -0.008

NAGLU (UniProt P54802)
inactive: saracatinib -0.061 | sotrastaurin 0.011 | alvocidib 0.012 | Tubastatin A 0.096 | [1] -0.041 | defactinib 0.008 | rucaparib -0.023 | [2] 0.12 | encorafenib -0.064 | [3] -0.009

NANP (UniProt Q8TBE9)
inactive: saracatinib -0.051 | sotrastaurin 0.035 | alvocidib -0.035 | Tubastatin A 0.054 | [1] 0.029 | defactinib -0.016 | rucaparib 0.038 | [2] 0.056 | encorafenib 0.022 | [3] -0.023

NCBP2 (UniProt P52298)
inactive: saracatinib -0.015 | sotrastaurin -0.031 | alvocidib -0.013 | Tubastatin A -0.04 | [1] -0.02 | defactinib -0.008 | rucaparib -0.008 | [2] 0.001 | encorafenib -0.005 | [3] -0.019

NDUFA5 (UniProt Q16718)
inactive: saracatinib -0.025 | sotrastaurin 0.042 | alvocidib -0.04 | Tubastatin A -0.019 | [1] -0.001 | defactinib -0.016 | rucaparib -0.023 | [2] -0.014 | encorafenib -0.028 | [3] -0.051

NCAPG2 isoform 2 (UniProt Q86XI2)
inactive: saracatinib -0.215 | sotrastaurin -0.152 | alvocidib 0.03 | Tubastatin A 0.004 | [1] 0.176 | defactinib 0.267 | rucaparib 0.194 | [2] -0.012 | encorafenib 0.229 | [3] -0.221

NDUFA10 (UniProt O95299)
inactive: saracatinib -0.04 | sotrastaurin 0.079 | alvocidib -0.063 | Tubastatin A -0.022 | [1] -0.044 | defactinib -0.052 | rucaparib -0.017 | [2] 0.062 | encorafenib 0.044 | [3] 0.009

MZT2A (UniProt Q6P582)
inactive: saracatinib 0.013 | sotrastaurin 0.048 | alvocidib -0.047 | Tubastatin A 0.244 | [1] 0.006 | defactinib 0.05 | rucaparib 0.1 | [2] -0.064 | encorafenib 0.067 | [3] 0.05

2 neighbouring entries out of the list so far:
NDUFS3 (UniProt O75489)
inactive: saracatinib 0.078 | sotrastaurin 0.011 | alvocidib -0.032 | Tubastatin A -0.053 | [1] -0.026 | defactinib -0.094 | rucaparib -0.043 | [2] -0.002 | encorafenib 0.017 | [3] -0.008

NAGLU (UniProt P54802)
inactive: saracatinib -0.061 | sotrastaurin 0.011 | alvocidib 0.012 | Tubastatin A 0.096 | [1] -0.041 | defactinib 0.008 | rucaparib -0.023 | [2] 0.12 | encorafenib -0.064 | [3] -0.009

Further records

NAV1 (UniProt Q8NEY1)
inactive: saracatinib -0.464 | sotrastaurin 0.09 | alvocidib -0.08 | Tubastatin A 0.084 | [1] -0.199 | defactinib 0.006 | rucaparib 0.022 | [2] 0.149 | encorafenib 0.03 | [3] 0.076

NCSTN (UniProt Q92542)
inactive: saracatinib 0.05 | sotrastaurin 0.024 | alvocidib -0.019 | Tubastatin A 0.016 | [1] -0.033 | defactinib -0.025 | rucaparib -0.075 | [2] -0.079 | encorafenib 0.022 | [3] 0.001

NAA20 (UniProt P61599)
inactive: saracatinib 0.003 | sotrastaurin -0.032 | alvocidib -0.11 | Tubastatin A 0.011 | [1] -0.006 | defactinib -0.02 | rucaparib -0.024 | [2] 0.048 | encorafenib -0.013 | [3] 0.027

NARS1 (UniProt O43776)
inactive: saracatinib 0.01 | sotrastaurin 0.051 | alvocidib 0.032 | Tubastatin A -0.051 | [1] -0.022 | defactinib 0.011 | rucaparib -0.017 | [2] -0.061 | encorafenib -0.017 | [3] 0.064

NAA10 (UniProt P41227)
inactive: saracatinib 0.041 | sotrastaurin 0.026 | alvocidib -0.068 | Tubastatin A 0.027 | [1] -0.006 | defactinib -0.061 | rucaparib -0.043 | [2] 0.036 | encorafenib 0.004 | [3] -0.013

NDUFS5 (UniProt O43920)
inactive: saracatinib 0.001 | sotrastaurin 0.09 | alvocidib 0.023 | Tubastatin A -0.025 | [1] 0.049 | defactinib -0.018 | rucaparib -0.02 | [2] -0.075 | encorafenib -0.013 | [3] 0.037

NCDN isoform 3 (UniProt Q9UBB6)
inactive: saracatinib -0.046 | sotrastaurin -0.059 | alvocidib -0.136 | Tubastatin A 0.047 | [1] 0.024 | defactinib -0.148 | rucaparib 0.077 | [2] -0.015 | encorafenib 0.053 | [3] -0.06

NDOR1 isoform 2 (UniProt Q9UHB4)
inactive: saracatinib 0.054 | sotrastaurin 0.038 | alvocidib -0.008 | Tubastatin A 0.234 | [1] -0.057 | defactinib -0.044 | rucaparib 0.154 | [2] -0.035 | encorafenib 0.001 | [3] -0.02

NADSYN1 (UniProt Q6IA69)
inactive: saracatinib 0.12 | sotrastaurin 0.024 | alvocidib -0.032 | Tubastatin A -0.059 | [1] -0.004 | defactinib -0.036 | rucaparib 0.235 | [2] 0.007 | encorafenib -0.043 | [3] 0.009

NDUFS1 isoform 2 (UniProt P28331)
inactive: saracatinib -0.01 | sotrastaurin 0.016 | alvocidib -0.103 | Tubastatin A -0.058 | [1] 0.002 | defactinib -0.035 | rucaparib 0.004 | [2] -0.002 | encorafenib 0 | [3] -0.002

NEDD1 isoform 3 (UniProt Q8NHV4)
inactive: saracatinib 0.024 | sotrastaurin -0.022 | alvocidib -0.034 | Tubastatin A -0.034 | [1] -0.05 | defactinib -0.024 | rucaparib 0.035 | [2] -0.034 | encorafenib -0.025 | [3] 0.003

NDUFV3 isoform 2 (UniProt P56181)
inactive: saracatinib 0.009 | sotrastaurin 0.07 | alvocidib 0.018 | Tubastatin A -0.059 | [1] -0.002 | defactinib -0.017 | rucaparib 0.009 | [2] -0.088 | encorafenib -0.066 | [3] 0.059

NCALD (UniProt P61601)
inactive: saracatinib 0.006 | sotrastaurin -0.018 | alvocidib 0.034 | Tubastatin A -0.027 | [1] -0.006 | defactinib 0.019 | rucaparib -0.021 | [2] -0.059 | encorafenib 0.002 | [3] 0

NDUFA3 (UniProt O95167)
inactive: saracatinib 0.026 | sotrastaurin 0.054 | alvocidib 0 | Tubastatin A 0.063 | [1] 0.041 | defactinib -0.023 | rucaparib -0.006 | [2] -0.017 | encorafenib -0.082 | [3] 0.158

NCS1 (UniProt P62166)
inactive: saracatinib 0.083 | sotrastaurin 0.068 | alvocidib 0.059 | Tubastatin A 0.013 | [1] 0.006 | defactinib -0.034 | rucaparib -0.021 | [2] -0.025 | encorafenib 0 | [3] 0.017

NDUFV2 (UniProt P19404)
inactive: saracatinib 0.046 | sotrastaurin -0.014 | alvocidib -0.016 | Tubastatin A -0.01 | [1] -0.023 | defactinib 0.019 | rucaparib 0.004 | [2] -0.044 | encorafenib -0.079 | [3] 0.046

NDUFB9 (UniProt Q9Y6M9)
inactive: saracatinib 0.037 | sotrastaurin 0.061 | alvocidib -0.044 | Tubastatin A -0.011 | [1] 0.04 | defactinib -0.026 | rucaparib 0.019 | [2] -0.012 | encorafenib -0.015 | [3] 0.015
